Reference: the supplement of paper PMC10849652
The list shows a part of the results.

By UniProt entry, the sequences of proteins in these tests, tags left out. Where a name states a change or a piece, a line headed by the entry shows the natural chain unless it says otherwise.
UniProt Q8N201, whole entry, looked up: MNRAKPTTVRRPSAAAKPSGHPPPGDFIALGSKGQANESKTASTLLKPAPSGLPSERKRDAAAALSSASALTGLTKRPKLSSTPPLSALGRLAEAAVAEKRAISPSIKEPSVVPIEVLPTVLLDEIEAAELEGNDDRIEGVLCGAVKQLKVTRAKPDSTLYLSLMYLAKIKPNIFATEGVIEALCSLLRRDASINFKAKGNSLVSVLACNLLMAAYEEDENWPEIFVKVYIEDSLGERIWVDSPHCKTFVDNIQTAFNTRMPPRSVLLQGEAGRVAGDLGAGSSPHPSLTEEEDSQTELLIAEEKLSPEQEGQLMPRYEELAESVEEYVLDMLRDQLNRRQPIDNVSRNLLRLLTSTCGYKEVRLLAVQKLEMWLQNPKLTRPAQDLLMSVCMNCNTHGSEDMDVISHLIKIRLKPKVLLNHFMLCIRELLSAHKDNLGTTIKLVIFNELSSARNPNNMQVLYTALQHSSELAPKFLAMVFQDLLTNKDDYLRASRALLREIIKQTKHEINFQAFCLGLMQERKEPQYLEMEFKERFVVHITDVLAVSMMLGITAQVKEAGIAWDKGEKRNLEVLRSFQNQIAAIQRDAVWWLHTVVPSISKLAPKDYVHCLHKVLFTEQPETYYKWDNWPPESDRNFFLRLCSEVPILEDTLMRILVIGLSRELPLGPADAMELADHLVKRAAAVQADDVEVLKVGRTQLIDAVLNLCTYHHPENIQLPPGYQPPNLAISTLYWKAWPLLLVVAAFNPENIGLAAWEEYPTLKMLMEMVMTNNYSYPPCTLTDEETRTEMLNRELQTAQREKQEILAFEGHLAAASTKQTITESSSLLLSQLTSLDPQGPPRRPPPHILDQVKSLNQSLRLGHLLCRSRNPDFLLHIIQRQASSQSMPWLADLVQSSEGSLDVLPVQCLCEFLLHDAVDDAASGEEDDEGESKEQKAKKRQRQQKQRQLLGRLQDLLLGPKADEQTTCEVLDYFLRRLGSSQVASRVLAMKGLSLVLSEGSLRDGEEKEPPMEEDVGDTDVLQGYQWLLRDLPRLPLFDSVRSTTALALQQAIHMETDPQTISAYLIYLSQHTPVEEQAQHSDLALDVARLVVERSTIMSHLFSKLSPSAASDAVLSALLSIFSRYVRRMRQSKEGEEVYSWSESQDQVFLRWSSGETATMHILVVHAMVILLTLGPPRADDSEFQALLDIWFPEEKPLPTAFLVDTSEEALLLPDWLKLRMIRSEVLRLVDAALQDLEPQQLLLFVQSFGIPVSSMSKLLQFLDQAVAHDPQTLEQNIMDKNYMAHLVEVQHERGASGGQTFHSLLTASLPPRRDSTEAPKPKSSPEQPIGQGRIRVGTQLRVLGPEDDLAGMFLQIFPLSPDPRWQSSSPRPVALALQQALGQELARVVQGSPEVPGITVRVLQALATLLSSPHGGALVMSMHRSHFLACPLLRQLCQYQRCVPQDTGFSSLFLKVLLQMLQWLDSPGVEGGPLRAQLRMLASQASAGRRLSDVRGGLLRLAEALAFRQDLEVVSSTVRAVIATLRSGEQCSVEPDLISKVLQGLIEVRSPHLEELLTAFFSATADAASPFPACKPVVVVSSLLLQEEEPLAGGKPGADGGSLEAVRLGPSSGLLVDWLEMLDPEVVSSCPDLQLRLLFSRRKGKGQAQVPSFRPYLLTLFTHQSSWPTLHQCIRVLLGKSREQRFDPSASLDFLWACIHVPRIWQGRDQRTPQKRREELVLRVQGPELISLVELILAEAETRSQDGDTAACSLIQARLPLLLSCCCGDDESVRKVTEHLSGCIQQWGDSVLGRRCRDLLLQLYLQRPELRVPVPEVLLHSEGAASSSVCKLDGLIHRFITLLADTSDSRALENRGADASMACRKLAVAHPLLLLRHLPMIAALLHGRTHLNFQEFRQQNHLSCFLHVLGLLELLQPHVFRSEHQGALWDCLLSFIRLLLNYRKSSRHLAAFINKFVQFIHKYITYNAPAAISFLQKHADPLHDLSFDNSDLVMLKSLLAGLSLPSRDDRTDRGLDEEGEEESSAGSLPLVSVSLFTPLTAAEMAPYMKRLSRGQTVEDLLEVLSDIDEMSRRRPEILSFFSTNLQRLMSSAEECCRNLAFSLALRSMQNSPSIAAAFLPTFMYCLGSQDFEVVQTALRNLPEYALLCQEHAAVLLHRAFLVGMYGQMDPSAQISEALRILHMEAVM
UniProt Q6UWB1, whole entry, looked up: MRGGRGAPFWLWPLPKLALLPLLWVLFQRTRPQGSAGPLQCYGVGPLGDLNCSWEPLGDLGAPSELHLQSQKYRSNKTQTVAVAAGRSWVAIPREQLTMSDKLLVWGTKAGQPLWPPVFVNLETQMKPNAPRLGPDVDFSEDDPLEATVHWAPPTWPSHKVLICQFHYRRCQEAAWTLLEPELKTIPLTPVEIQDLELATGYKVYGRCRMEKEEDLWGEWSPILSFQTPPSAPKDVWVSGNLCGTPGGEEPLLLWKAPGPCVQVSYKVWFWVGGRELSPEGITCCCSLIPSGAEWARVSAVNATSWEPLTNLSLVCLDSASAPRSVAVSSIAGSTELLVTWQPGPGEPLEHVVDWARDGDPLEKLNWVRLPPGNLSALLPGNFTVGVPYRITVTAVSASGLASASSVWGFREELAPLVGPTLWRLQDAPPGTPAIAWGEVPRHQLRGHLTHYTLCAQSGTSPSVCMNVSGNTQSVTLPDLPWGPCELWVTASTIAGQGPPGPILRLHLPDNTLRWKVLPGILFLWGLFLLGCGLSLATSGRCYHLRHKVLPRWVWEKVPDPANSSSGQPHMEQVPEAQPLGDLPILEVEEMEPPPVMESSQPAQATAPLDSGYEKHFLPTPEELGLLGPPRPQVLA
UniProt Q9Y6M1: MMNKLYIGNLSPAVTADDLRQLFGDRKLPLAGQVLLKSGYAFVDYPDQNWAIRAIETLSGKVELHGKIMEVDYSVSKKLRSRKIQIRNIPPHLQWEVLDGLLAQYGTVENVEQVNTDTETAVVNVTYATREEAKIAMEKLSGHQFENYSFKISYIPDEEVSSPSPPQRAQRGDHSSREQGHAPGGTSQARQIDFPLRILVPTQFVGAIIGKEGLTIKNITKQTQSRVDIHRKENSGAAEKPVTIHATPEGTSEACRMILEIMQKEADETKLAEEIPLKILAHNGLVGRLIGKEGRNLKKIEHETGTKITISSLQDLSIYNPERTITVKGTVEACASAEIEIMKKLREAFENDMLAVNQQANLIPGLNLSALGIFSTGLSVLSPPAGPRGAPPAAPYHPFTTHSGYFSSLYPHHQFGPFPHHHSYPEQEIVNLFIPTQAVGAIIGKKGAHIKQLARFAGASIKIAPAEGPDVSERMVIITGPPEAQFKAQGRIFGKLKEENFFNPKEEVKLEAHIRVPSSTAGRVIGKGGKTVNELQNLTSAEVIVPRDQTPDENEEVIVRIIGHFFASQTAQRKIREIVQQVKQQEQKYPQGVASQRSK
UniProt Q9H6K1: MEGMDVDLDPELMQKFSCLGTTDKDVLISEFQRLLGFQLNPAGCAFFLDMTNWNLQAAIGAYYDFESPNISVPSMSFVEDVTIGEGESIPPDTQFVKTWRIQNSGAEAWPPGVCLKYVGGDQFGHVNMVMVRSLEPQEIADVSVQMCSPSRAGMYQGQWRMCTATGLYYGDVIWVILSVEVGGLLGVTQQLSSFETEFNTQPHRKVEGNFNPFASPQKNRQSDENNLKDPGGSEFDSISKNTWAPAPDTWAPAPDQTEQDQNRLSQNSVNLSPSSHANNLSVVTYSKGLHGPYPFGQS
UniProt Q96LU5: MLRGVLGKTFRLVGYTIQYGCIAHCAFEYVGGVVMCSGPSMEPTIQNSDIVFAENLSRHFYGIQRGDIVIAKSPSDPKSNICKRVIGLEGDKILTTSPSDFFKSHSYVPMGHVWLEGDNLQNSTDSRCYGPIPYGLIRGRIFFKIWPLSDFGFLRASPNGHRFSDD
UniProt P48735: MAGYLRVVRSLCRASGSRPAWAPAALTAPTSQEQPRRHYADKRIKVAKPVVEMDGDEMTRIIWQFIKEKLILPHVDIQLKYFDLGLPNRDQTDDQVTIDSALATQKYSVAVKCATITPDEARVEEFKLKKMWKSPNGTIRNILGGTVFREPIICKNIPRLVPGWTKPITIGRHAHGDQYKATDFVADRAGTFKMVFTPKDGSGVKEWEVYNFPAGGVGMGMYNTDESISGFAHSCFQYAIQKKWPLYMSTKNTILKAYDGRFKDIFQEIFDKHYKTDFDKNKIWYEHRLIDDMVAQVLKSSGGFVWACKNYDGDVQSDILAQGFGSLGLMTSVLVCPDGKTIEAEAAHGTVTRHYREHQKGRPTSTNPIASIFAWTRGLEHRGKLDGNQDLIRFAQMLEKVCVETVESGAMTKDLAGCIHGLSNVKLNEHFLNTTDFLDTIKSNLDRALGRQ
UniProt Q659A1: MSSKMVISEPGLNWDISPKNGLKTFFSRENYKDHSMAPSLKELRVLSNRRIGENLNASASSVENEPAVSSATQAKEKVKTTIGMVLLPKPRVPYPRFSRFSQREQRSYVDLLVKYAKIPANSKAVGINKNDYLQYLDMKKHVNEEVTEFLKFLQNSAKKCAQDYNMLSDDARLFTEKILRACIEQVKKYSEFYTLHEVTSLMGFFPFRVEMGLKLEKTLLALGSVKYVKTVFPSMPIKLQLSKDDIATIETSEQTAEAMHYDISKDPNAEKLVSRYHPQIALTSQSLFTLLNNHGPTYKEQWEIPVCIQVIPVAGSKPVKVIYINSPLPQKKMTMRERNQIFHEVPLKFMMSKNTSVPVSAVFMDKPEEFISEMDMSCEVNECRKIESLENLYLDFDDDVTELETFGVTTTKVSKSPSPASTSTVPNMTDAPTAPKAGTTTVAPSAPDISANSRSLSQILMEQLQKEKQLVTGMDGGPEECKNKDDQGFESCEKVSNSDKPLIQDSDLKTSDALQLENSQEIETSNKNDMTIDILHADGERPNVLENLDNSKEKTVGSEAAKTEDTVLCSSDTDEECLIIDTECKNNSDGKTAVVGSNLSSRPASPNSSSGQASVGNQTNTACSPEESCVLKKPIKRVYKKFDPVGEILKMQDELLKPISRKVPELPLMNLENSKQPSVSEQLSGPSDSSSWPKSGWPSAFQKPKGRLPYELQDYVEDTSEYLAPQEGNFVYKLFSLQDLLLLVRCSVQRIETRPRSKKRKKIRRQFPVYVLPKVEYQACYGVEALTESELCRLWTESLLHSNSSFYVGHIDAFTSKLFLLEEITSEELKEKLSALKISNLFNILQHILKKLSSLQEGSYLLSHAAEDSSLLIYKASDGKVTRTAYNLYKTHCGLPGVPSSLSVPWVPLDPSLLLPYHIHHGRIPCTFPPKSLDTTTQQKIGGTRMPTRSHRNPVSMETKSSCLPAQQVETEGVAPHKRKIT
UniProt Q9HBG6: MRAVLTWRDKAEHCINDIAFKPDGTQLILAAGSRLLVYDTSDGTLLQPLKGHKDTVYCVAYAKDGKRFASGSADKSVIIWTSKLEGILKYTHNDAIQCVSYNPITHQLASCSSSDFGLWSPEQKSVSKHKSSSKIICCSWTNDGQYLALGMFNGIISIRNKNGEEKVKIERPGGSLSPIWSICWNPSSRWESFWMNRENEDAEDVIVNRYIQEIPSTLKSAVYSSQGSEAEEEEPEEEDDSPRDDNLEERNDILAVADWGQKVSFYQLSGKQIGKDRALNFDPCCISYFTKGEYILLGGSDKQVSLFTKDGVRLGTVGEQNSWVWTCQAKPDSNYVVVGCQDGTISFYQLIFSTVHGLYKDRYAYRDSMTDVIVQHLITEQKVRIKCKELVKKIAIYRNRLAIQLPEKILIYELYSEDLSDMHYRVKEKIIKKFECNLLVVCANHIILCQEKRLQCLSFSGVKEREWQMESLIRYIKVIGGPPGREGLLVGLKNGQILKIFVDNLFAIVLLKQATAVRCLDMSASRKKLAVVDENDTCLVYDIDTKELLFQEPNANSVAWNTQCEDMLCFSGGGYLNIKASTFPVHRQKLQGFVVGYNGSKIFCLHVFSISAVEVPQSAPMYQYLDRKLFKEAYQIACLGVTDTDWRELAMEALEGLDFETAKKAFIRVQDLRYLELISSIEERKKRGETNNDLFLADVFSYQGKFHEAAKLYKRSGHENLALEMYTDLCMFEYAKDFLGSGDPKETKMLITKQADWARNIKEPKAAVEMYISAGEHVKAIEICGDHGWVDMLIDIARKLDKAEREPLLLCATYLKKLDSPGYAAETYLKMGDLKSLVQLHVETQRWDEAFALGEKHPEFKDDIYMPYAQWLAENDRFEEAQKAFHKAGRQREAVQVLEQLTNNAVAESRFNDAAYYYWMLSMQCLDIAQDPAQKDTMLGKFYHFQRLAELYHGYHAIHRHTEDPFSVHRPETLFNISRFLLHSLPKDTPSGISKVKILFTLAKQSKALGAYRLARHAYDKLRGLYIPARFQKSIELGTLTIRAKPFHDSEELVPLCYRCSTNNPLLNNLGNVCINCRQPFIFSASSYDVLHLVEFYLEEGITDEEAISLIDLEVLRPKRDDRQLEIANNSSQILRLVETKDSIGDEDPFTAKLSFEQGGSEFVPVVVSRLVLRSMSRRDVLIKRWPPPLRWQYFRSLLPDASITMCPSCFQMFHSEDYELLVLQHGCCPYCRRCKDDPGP

Compound: Cn1cc(-c2ccc3c(c2)CCN3C(=O)Cc2cccc(C(F)(F)F)c2)c2c(N)ncnc21
Assay: log2 fold change, soluble protein after heating vs DMSO (PISA); higher = thermal stabilisation; K562 lysate, 10 uM; active = over 0.2 and 3.5 SD of the protein, either way, in both replicates (recomputed)
How it was run: (§1)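 Pellets of K562 cells were dounce-homogenised in PBS pH 7.4 with 1 mM MgCl2, and the crude extract was held at 1 mg/mL protein for a 30 min treatment with 10 μM compound. Aliquots were heated for 3 min over 48°C-58°C and pooled before NP-40 was added to 0.5% at 4°C. The supernatant from 21,000xg for 90 min was quantified by TMTpro 16plex LC-MS/MS with channel sums equalised. Values are reported from duplicates as log-two fold change in thermal stability relative to solvent controls.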

Target	log2 fold change
INTS1 (UniProt Q8N201)	inactive: 0.028
IL27RA (UniProt Q6UWB1)	inactive: -0.049
HSPA8 (UniProt E9PN89)	inactive: -0.032
IGF2BP2 (UniProt Q9Y6M1)	inactive: 0.031
ILRUN (UniProt Q9H6K1)	inactive: 0.005
IMMP1L (UniProt Q96LU5)	inactive: -0.033
IDH2 (UniProt P48735)	inactive: 0.064
ICE2 (UniProt Q659A1)	inactive: 0.024
IFT122 isoform 5 (UniProt Q9HBG6)	inactive: -0.011

Compound: Cn1cc(CNCC2CCN(c3ncc(C(=O)NO)cn3)CC2)c2ccccc21 [quisinostat]
Assay: as above
How it was run: as §1

Target	log2 fold change
IL18 (UniProt Q14116)	inactive: -0.033
IK (UniProt Q13123)	inactive: -0.009
ID1 (UniProt P41134)	inactive: -0.005
IGSF3 (UniProt O75054)	inactive: -0.021
IMPDH2 (UniProt H0Y4R1)	inactive: -0.153
HSPB11 (UniProt Q9Y547)	inactive: -0.021
IBTK (UniProt Q9P2D0)	inactive: 0.001
IGBP1 (UniProt P78318)	inactive: -0.019
INPP4A (UniProt Q96PE3)	inactive: -0.03
IGFBP4 (UniProt P22692)	inactive: -0.049
INPP5B (UniProt P32019)	inactive: -0.04
HTT (UniProt P42858)	inactive: -0.081
HYOU1 (UniProt J3QL06)	inactive: 0.138
IGHA1 (UniProt P01876)	inactive: 0.568
IFT57 (UniProt Q9NWB7)	inactive: -0.028
IFT74 (UniProt Q96LB3)	inactive: -0.124
IDH3G (UniProt P51553)	inactive: 0.01

Target	log2 fold change
IMPAD1 (UniProt Q9NX62)	inactive: -0.032
ILF3 isoform 7 (UniProt Q12906)	inactive: 0.039
HSPBAP1 (UniProt Q96EW2)	inactive: -0.07
ICAM2 (UniProt P13598)	inactive: 0.007
INO80E (UniProt Q8NBZ0)	inactive: -0.164
IGHMBP2 (UniProt P38935)	inactive: -0.097
IGHG1 (UniProt P01857)	inactive: 0.159
INTS1 (UniProt Q8N201)	inactive: -0.01
IL27RA (UniProt Q6UWB1)	inactive: 0.019
HSPA8 (UniProt E9PN89)	inactive: -0.415
IGF2BP2 (UniProt Q9Y6M1)	inactive: 0.012
ILRUN (UniProt Q9H6K1)	inactive: -0.047
IMMP1L (UniProt Q96LU5)	inactive: -0.066
IDH2 (UniProt P48735)	inactive: -0.021
ICE2 (UniProt Q659A1)	inactive: -0.067
IFT122 isoform 5 (UniProt Q9HBG6)	inactive: 0.17

Compound: Cn1cncc1[C@@](N)(c1ccc(Cl)cc1)c1ccc2c(c1)c(-c1cccc(Cl)c1)cc(=O)n2C [tipifarnib]
Assay: as above
How it was run: as §1

Target	log2 fold change
IL18 (UniProt Q14116)	inactive: 0.011
IK (UniProt Q13123)	inactive: -0.041
ID1 (UniProt P41134)	inactive: -0.041
IGSF3 (UniProt O75054)	inactive: 0.087
IMPDH2 (UniProt H0Y4R1)	inactive: -0.09
HSPB11 (UniProt Q9Y547)	inactive: 0.113
IBTK (UniProt Q9P2D0)	inactive: -0.049
IGBP1 (UniProt P78318)	inactive: -0.021
INPP4A (UniProt Q96PE3)	inactive: 0.03
IGFBP4 (UniProt P22692)	inactive: 0.119
INPP5B (UniProt P32019)	inactive: 0.006
HTT (UniProt P42858)	inactive: -0.072
HYOU1 (UniProt J3QL06)	inactive: 0.166
IGHA1 (UniProt P01876)	inactive: -0.129
IFT57 (UniProt Q9NWB7)	inactive: 0.114
IFT74 (UniProt Q96LB3)	inactive: -0.06
IDH3G (UniProt P51553)	inactive: 0.032

Target	log2 fold change
IMPAD1 (UniProt Q9NX62)	inactive: 0.051
ILF3 isoform 7 (UniProt Q12906)	inactive: 0.016
HSPBAP1 (UniProt Q96EW2)	inactive: 0.056
ICAM2 (UniProt P13598)	inactive: -0.016
INO80E (UniProt Q8NBZ0)	inactive: -0.043
IGHMBP2 (UniProt P38935)	inactive: -0.043
IGHG1 (UniProt P01857)	inactive: -0.315
INTS1 (UniProt Q8N201)	inactive: 0.017
IL27RA (UniProt Q6UWB1)	inactive: -0.067
HSPA8 (UniProt E9PN89)	inactive: 0.006
IGF2BP2 (UniProt Q9Y6M1)	inactive: 0.028
ILRUN (UniProt Q9H6K1)	inactive: -0.012
IMMP1L (UniProt Q96LU5)	inactive: -0.028
IDH2 (UniProt P48735)	inactive: -0.013
ICE2 (UniProt Q659A1)	inactive: -0.043
IFT122 isoform 5 (UniProt Q9HBG6)	inactive: 0.143
